Consider 42 sequences from paper PMC7819943, “Rice protein-binding microarrays: a tool to detect cis-acting elements near promoter regions in rice”.

Amino acid sequences for entries named in this document (tags omitted).
UniProt Q0JBA9, entry or part of it: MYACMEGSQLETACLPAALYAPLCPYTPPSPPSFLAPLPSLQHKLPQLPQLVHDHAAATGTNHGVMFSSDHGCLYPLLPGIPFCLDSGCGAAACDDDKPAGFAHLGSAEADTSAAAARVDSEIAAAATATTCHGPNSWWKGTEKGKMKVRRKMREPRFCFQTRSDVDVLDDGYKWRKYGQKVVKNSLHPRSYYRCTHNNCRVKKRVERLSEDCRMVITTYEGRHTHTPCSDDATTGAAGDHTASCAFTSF

Some of the results follow.

The target in the assay is OsWRKY34 (Oryza sativa, UniProt Q0JBA9 1-250). Kind of assay: protein-binding microarray (RPBM); PBS, 2% BSA, 51.3 ng/ul salmon testes DNA, 50 uM zinc acetate, 200 nM TF, 25 C, 1 h; high values mean tight binding. The following applies: protein: recombinant; tags: N-terminal polyhistidine and DsRed monomer fusion (pET32a); label: CyDye5-dUTP incorporated in the synthesized complementary strand; 3' TTTTT single-stranded linker to array surface; dsDNA, one strand shown. In a few lines: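 Per-feature fluorescence intensity (arbitrary units), read on an Axon 4000B scanner, is the binding signal. Transcription factors carrying an N-terminal polyhistidine tag and DsRed fusion were expressed in E. coli BL21-CodonPlus and purified on Ni–NTA. A custom Agilent array, made double-stranded by primer extension with Cy5-dUTP and blocked with 2% BSA, was incubated with 200 nM protein in PBS, 2% BSA, salmon testes DNA and 50 µM zinc acetate at 25 °C for 1 h and then washed.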
Take “TCTTCCAATCGAGAACTCTTCTCCGGATTTCCTGGTTTTTCGGAGTCACCTAGTGCAG”: the binding signal is 8480 fluorescence intensity (a.u.).
Regarding “ATAATATCACACGTACACTCCCACATATACACTCTCTTTCCGGAGTCACCTAGTGCAG”, the binding signal was 12100 fluorescence intensity (a.u.).
For the sequence “CAATTTGATGTATCTGTTCTGAATCTTCCACTCATGAATGCGGAGTCACCTAGTGCAG”, the binding signal was 8290 fluorescence intensity (a.u.).
With “GGATGGATGGGGATGCCGCTACGCTTCCGGGGAGGTCACCCGGAGTCACCTAGTGCAG”, the binding signal is 9680 fluorescence intensity (a.u.).
In the case of “TTGGTAGAGTTGTCCGTTTGGATTTTGGCCTCCCTTTTTTCGGAGTCACCTAGTGCAG”, the binding signal is 8380 fluorescence intensity (a.u.).
In the case of “TCTTTTCCTTTTTTGTCTTCGTTGCTACTCATGTTAGAGTCGGAGTCACCTAGTGCAG”, the binding signal is 8760 fluorescence intensity (a.u.).
The same measure for “ACATGATTTTCACATTTCTAACACTTGATATTTCTCCTTACGGAGTCACCTAGTGCAG”: 8110 fluorescence intensity (a.u.); for “TAGGGACCCCTTTGGCTATTCACCCTTTTTTCTTAGTCCACGGAGTCACCTAGTGCAG”: 10600 fluorescence intensity (a.u.); for “GCAACCGGATTCAATGCTATATATGATTTCTGACTCTGTTCGGAGTCACCTAGTGCAG”: 8890 fluorescence intensity (a.u.).
For “GGACATGTCTCCAAGCTCTCATCCGTTGACTTCTCCCTATCGGAGTCACCTAGTGCAG”, the binding signal was 15200 fluorescence intensity (a.u.).
For the sequence “TGTTCATCTTGTTCTTGCTGGTTCTCGATTGCTCGCAGGACGGAGTCACCTAGTGCAG”, the binding signal is 10400 fluorescence intensity (a.u.).
As for “TTTTCCAACCTCCGCTGTCTCATTTCGTATACACACGTTTCGGAGTCACCTAGTGCAG”, the binding signal was 8260 fluorescence intensity (a.u.).
For “ACACGTTACCTCCGCCGCGGTTGCTTTCCTTCTTCCCTTCCGGAGTCACCTAGTGCAG”, the binding signal is 10800 fluorescence intensity (a.u.).
“TCTCTCCTCCTCCGAGTCTTTTCGGTTTGGCTCGATCCGCCGGAGTCACCTAGTGCAG”: the binding signal was 9390 fluorescence intensity (a.u.).
Take “CCTGCCCACTTGCGACTTGTGTCTTTTGTCTCGTTTCTTGCGGAGTCACCTAGTGCAG”: the binding signal is 14300 fluorescence intensity (a.u.).
“CCCTTTCCTTCTCATTCCTCGCGGGGAGGGGCGGCGCCGACGGAGTCACCTAGTGCAG”: the binding signal was 11500 fluorescence intensity (a.u.).
Consider “TAGCCACCATCTCAGCAATACAACCGCTACTGCTAAAAACCGGAGTCACCTAGTGCAG”, for which the binding signal was 8200 fluorescence intensity (a.u.).
In the case of “CGGCCACCACCAAACCACCACCATCCCGACCAATCAAACGCGGAGTCACCTAGTGCAG”, the binding signal was 9760 fluorescence intensity (a.u.).
Regarding “ATATTTTTATCTAATCATTCTCACCTATTTTGTTAATACCCGGAGTCACCTAGTGCAG”, the binding signal was 10000 fluorescence intensity (a.u.).
In the case of “TAGTTTTCTCAGGTGTTTGGGAATTGGTTGGTGAAGATGACGGAGTCACCTAGTGCAG”, the binding signal was 9450 fluorescence intensity (a.u.).
For “ACGTCTGCCGCCACTGTCCTCGCCAACCCTACCGCGCTCCCGGAGTCACCTAGTGCAG”, the binding signal was 10500 fluorescence intensity (a.u.).
On to “CTTTTAGGTCTAATTTACTGGTAGCAGCATAGAATTTTCACGGAGTCACCTAGTGCAG”, for which the binding signal was 8510 fluorescence intensity (a.u.).
As to “TGGATGGTCTCTAGTTCTTTAGGATTTAAATGGTTATTGTCGGAGTCACCTAGTGCAG”, the binding signal was 8170 fluorescence intensity (a.u.).
With “TTGTTCTTCCCGTGCTGATTTGGATTTAATTACAAGTATTCGGAGTCACCTAGTGCAG”, the binding signal was 8200 fluorescence intensity (a.u.).
Take “CCTCCATCTGATATTTCTCTCTTCTCGCATCCGTGTCTTCCGGAGTCACCTAGTGCAG”: the binding signal is 9170 fluorescence intensity (a.u.).
As to “CCACCAGCGCCTCCTCTCACGCCCGCACCCACGCCCTAAACGGAGTCACCTAGTGCAG”, the binding signal is 9770 fluorescence intensity (a.u.).
The same measure for “TATAGGTCACATATTACGTCCATTTGAGTTCAATTTTTCTCGGAGTCACCTAGTGCAG”: 10900 fluorescence intensity (a.u.).
Take “CCACCACCCCGCGGCTTCGCTCGCGCCACCGCCACTGATTCGGAGTCACCTAGTGCAG”: the binding signal is 9960 fluorescence intensity (a.u.).
As for “TATTATACCATCGATAGAGAGCACCAGAGCATCGTTCATTCGGAGTCACCTAGTGCAG”, the binding signal was 8850 fluorescence intensity (a.u.).
On to “CCCGCCTCCGCCGCGCGCCGCCATCCATCCTCCTCTCCGGCGGAGTCACCTAGTGCAG”, for which the binding signal is 9810 fluorescence intensity (a.u.).
For “ACCATCTCAAATCACCCTCACGATCTCAATCACGTTGCGCCGGAGTCACCTAGTGCAG”, the binding signal is 8320 fluorescence intensity (a.u.).
As to “CTCTCTGTTTTGCCTACCCTTCTATCAATCAGTTTGGACACGGAGTCACCTAGTGCAG”, the binding signal was 8280 fluorescence intensity (a.u.).
Regarding “ATTTTTCATGGCGTCACCCTATAATTTTCGCTGGCGGTTACGGAGTCACCTAGTGCAG”, the binding signal was 8550 fluorescence intensity (a.u.).
In the case of “CACTATTCATGTTCAACGTTTCACCGTTCGTCTTATTTAACGGAGTCACCTAGTGCAG”, the binding signal is 15600 fluorescence intensity (a.u.).
The same measure for “GCATCTATCTACTCCTACTATCTCTCTATCTGCATCTACTCGGAGTCACCTAGTGCAG”: 10300 fluorescence intensity (a.u.); for “CCCGGTTTCACGTGGCCTCTCTTTTGACCCGTCTTTGACCCGGAGTCACCTAGTGCAG”: 9940 fluorescence intensity (a.u.).
In the case of “GCTTCCGGCCCTGTGTCACGCCGCGCCGTTCCTCGTCGTCCGGAGTCACCTAGTGCAG”, the binding signal was 8520 fluorescence intensity (a.u.).
As to “CCTCCCAGGCAGCCTATATAATTATTCTTCTATCAATTATCGGAGTCACCTAGTGCAG”, the binding signal was 8470 fluorescence intensity (a.u.).
With “CTCATCCTGCCGCCGCCGAATCGCCGATGGATCAATGCTCCGGAGTCACCTAGTGCAG”, the binding signal was 8820 fluorescence intensity (a.u.).
In the case of “GTGAATTACTACCATTTGTCATGCATTTTGTCCCATTTCACGGAGTCACCTAGTGCAG”, the binding signal is 13400 fluorescence intensity (a.u.).
“CTTTCTTCTTTTCTTCCGGCCTCTCTTGTCTCTTCAACTCCGGAGTCACCTAGTGCAG”: the binding signal was 14100 fluorescence intensity (a.u.).
Under “GGCGAGGCGGGATTGTTGGCGGGGAAGATGCGGGGCTATGCGGAGTCACCTAGTGCAG” stands 9670 fluorescence intensity (a.u.).
